Not every detail of the peptide structures is certain; ends, links or a residue may be inferred. Non-standard residues stand in square brackets, D forms with d. Residues, ends and D or L forms follow the SMILES beside them. *: point of attachment. pGlu = O=C1CC[C@@H](C(=O)O)N1; X1 = O=C1CCC[C@@H](C(=O)*)N1
Experiments:
rat medulla cells = test: Incorporation of 3H-thymidine, proliferation of rat medulla cells; assay type: cell-based
Chang-cells = test: Incorporation of 3H-thymidine, proliferation of Chang-cells; assay type: cell-based
rat thymus cells = test: Incorporation of 3H-thymidine, proliferation of rat thymus cells; assay type: cell-based
tumorous HeLaS3 cells = test: Incorporation of 3H-thymidine, proliferation of tumorous HeLaS3 cells; assay type: cell-based
mouse epidermal cells = details: in vitro, 10^-12 to 10^-8 mol/l; cited from earlier work
[1] = test system: epidermal cell proliferation of mice; details: natural and synthetic peptide; cited from earlier work

O=C(O)CC[C@H](NC(=O)[C@@H]1CCCC(=O)N1)C(=O)N[C@@H](CC(=O)O)C(=O)N[C@@H](CO)C(=O)NCC(=O)O [pAad-EI, Xaa Glu Asp Ser Gly] (X1-EDSG-OH)
Incorporation of 3H-thymidine, % change compared to the control (rat medulla cells; 10^-3 mol/l): -3%
Incorporation of 3H-thymidine, cpm (rat medulla cells; 10^-3 mol/l): 1130 cpm
Incorporation of 3H-thymidine, % change compared to the control (rat medulla cells; 10^-4 mol/l): +2.2%
Incorporation of 3H-thymidine, cpm (rat medulla cells; 10^-4 mol/l): 1190 cpm
Incorporation of 3H-thymidine, % change compared to the control (rat medulla cells; 10^-6 mol/l): -0.5%
Incorporation of 3H-thymidine, cpm (rat medulla cells; 10^-6 mol/l): 1160 cpm
Incorporation of 3H-thymidine, % change compared to the control (rat medulla cells; 10^-8 mol/l): +8.8%
Incorporation of 3H-thymidine, cpm (rat medulla cells; 10^-8 mol/l): 1267 cpm
Incorporation of 3H-thymidine, % change compared to the control (rat medulla cells; 10^-10 mol/l): +10.1%
Incorporation of 3H-thymidine, cpm (rat medulla cells; 10^-10 mol/l): 1282 cpm
Incorporation of 3H-thymidine, % change compared to the control (rat medulla cells; 10^-12 mol/l): +16%
Incorporation of 3H-thymidine, cpm (rat medulla cells; 10^-12 mol/l): 1351 cpm
Incorporation of 3H-thymidine, % change compared to the control (rat medulla cells; 10^-14 mol/l): +13.6%
Incorporation of 3H-thymidine, cpm (rat medulla cells; 10^-14 mol/l): 1264 cpm
inhibiting activity on non-target cells (in words) (rat medulla cells; Table 3): not exerted
Incorporation of 3H-thymidine, % change compared to the control (Chang-cells; 10^-4 mol/l): -7.8%
Incorporation of 3H-thymidine, cpm (Chang-cells; 10^-4 mol/l): 1450 cpm
Incorporation of 3H-thymidine, % change compared to the control (Chang-cells; 10^-6 mol/l): -6.3%
Incorporation of 3H-thymidine, cpm (Chang-cells; 10^-6 mol/l): 1472 cpm
Incorporation of 3H-thymidine, % change compared to the control (Chang-cells; 10^-8 mol/l): -12.4%
Incorporation of 3H-thymidine, cpm (Chang-cells; 10^-8 mol/l): 1377 cpm
Incorporation of 3H-thymidine, % change compared to the control (Chang-cells; 10^-9 mol/l): -16.8%
Incorporation of 3H-thymidine, cpm (Chang-cells; 10^-9 mol/l): 1310 cpm
Incorporation of 3H-thymidine, % change compared to the control (Chang-cells; 10^-10 mol/l): -14.4%
Incorporation of 3H-thymidine, cpm (Chang-cells; 10^-10 mol/l): 1346 cpm
Incorporation of 3H-thymidine, % change compared to the control (Chang-cells; 10^-12 mol/l): -25.2%
Incorporation of 3H-thymidine, cpm (Chang-cells; 10^-12 mol/l): 1176 cpm
Incorporation of 3H-thymidine, % change compared to the control (Chang-cells; 10^-14 mol/l): -30.1%
Incorporation of 3H-thymidine, cpm (Chang-cells; 10^-14 mol/l): 1099 cpm
inhibition of the proliferation of epidermal target cells (in words) (Chang-cells; Table 1): effectively inhibits
inhibition of the proliferation of healthy epidermal cells compared to the known peptide (Chang-cells; both peptides compared): in the same degree
Incorporation of 3H-thymidine, % change compared to the control (rat thymus cells; 10^-3 mol/l): +4.3%
Incorporation of 3H-thymidine, cpm (rat thymus cells; 10^-3 mol/l): 2164 cpm
Incorporation of 3H-thymidine, % change compared to the control (rat thymus cells; 10^-4 mol/l): +11.4%
Incorporation of 3H-thymidine, cpm (rat thymus cells; 10^-4 mol/l): 2311 cpm
Incorporation of 3H-thymidine, % change compared to the control (rat thymus cells; 10^-6 mol/l): +5.9%
Incorporation of 3H-thymidine, cpm (rat thymus cells; 10^-6 mol/l): 2196 cpm
Incorporation of 3H-thymidine, % change compared to the control (rat thymus cells; 10^-8 mol/l): -1.7%
Incorporation of 3H-thymidine, cpm (rat thymus cells; 10^-8 mol/l): 2039 cpm
Incorporation of 3H-thymidine, % change compared to the control (rat thymus cells; 10^-10 mol/l): +8%
Incorporation of 3H-thymidine, cpm (rat thymus cells; 10^-10 mol/l): 2339 cpm
Incorporation of 3H-thymidine, % change compared to the control (rat thymus cells; 10^-12 mol/l): -2.2%
Incorporation of 3H-thymidine, cpm (rat thymus cells; 10^-12 mol/l): 2030 cpm
Incorporation of 3H-thymidine, % change compared to the control (rat thymus cells; 10^-14 mol/l): -2.1%
Incorporation of 3H-thymidine, cpm (rat thymus cells; 10^-14 mol/l): 2031 cpm
inhibiting activity on non-target cells (in words) (rat thymus cells; Table 3): not exerted
duration of the inhibitory effect on tumorous cells (tumorous HeLaS3 cells): ≥ 13 h
selectivity of the inhibiting effect (tumorous vs healthy epidermal cells) compared to the known peptide (tumorous HeLaS3 cells): significantly more selective
Incorporation of 3H-thymidine, % change compared to the control (tumorous HeLaS3 cells; 10^-4 mol/l, 4 hours): -77.2%
Incorporation of 3H-thymidine, cpm (tumorous HeLaS3 cells; 10^-4 mol/l, 4 hours): 3590 cpm
Incorporation of 3H-thymidine, % change compared to the control (tumorous HeLaS3 cells; 10^-4 mol/l, 13 hours): +20.3%
Incorporation of 3H-thymidine, cpm (tumorous HeLaS3 cells; 10^-4 mol/l, 13 hours): 6230 cpm
Incorporation of 3H-thymidine, % change compared to the control (tumorous HeLaS3 cells; 10^-6 mol/l, 4 hours): -81.2%
Incorporation of 3H-thymidine, cpm (tumorous HeLaS3 cells; 10^-6 mol/l, 4 hours): 2930 cpm
Incorporation of 3H-thymidine, % change compared to the control (tumorous HeLaS3 cells; 10^-6 mol/l, 13 hours): -82.2%
Incorporation of 3H-thymidine, cpm (tumorous HeLaS3 cells; 10^-6 mol/l, 13 hours): 920 cpm
Incorporation of 3H-thymidine, % change compared to the control (tumorous HeLaS3 cells; 10^-9 mol/l, 4 hours): -85.8%
Incorporation of 3H-thymidine, cpm (tumorous HeLaS3 cells; 10^-9 mol/l, 4 hours): 2240 cpm
Incorporation of 3H-thymidine, % change compared to the control (tumorous HeLaS3 cells; 10^-9 mol/l, 13 hours): -86.3%
Incorporation of 3H-thymidine, cpm (tumorous HeLaS3 cells; 10^-9 mol/l, 13 hours): 710 cpm
Incorporation of 3H-thymidine, % change compared to the control (tumorous HeLaS3 cells; 10^-12 mol/l, 4 hours): -95.7%
Incorporation of 3H-thymidine, cpm (tumorous HeLaS3 cells; 10^-12 mol/l, 4 hours): 680 cpm
Incorporation of 3H-thymidine, % change compared to the control (tumorous HeLaS3 cells; 10^-12 mol/l, 13 hours): -53.3%
Incorporation of 3H-thymidine, cpm (tumorous HeLaS3 cells; 10^-12 mol/l, 13 hours): 2420 cpm
inhibition of the proliferation of epidermal target cells (in words) (tumorous HeLaS3 cells; Table 2): effectively inhibits
inhibitory effect on the proliferation of tumorous cells compared to the natural peptide (tumorous HeLaS3 cells; relative to EI): twofold

O=C(O)CC[C@H](NC(=O)[C@@H]1CCC(=O)N1)C(=O)N[C@@H](CC(=O)O)C(=O)N[C@@H](CO)C(=O)NCC(=O)O [EI, Xaa Glu Asp Ser Gly, reference compound] ([pGlu]EDSG-OH)
Incorporation of 3H-thymidine, % change compared to the control (Chang-cells; 10^-4 mol/l): -31.3%
Incorporation of 3H-thymidine, cpm (Chang-cells; 10^-4 mol/l): 1746 cpm
Incorporation of 3H-thymidine, % change compared to the control (Chang-cells; 10^-6 mol/l): -44%
Incorporation of 3H-thymidine, cpm (Chang-cells; 10^-6 mol/l): 1425 cpm
Incorporation of 3H-thymidine, % change compared to the control (Chang-cells; 10^-8 mol/l): -40%
Incorporation of 3H-thymidine, cpm (Chang-cells; 10^-8 mol/l): 1552 cpm
reduction of the proliferation rate of mouse epidermal cells (mouse epidermal cells): about 40%
dose inhibiting the epidermal cell proliferation of mice [1]: 10^-14 to 10^-11 mol/animal
Incorporation of 3H-thymidine, % change compared to the control (tumorous HeLaS3 cells; 10^-4 mol/l, 4 hours): -41%
Incorporation of 3H-thymidine, cpm (tumorous HeLaS3 cells; 10^-4 mol/l, 4 hours): 243 cpm
Incorporation of 3H-thymidine, % change compared to the control (tumorous HeLaS3 cells; 10^-6 mol/l, 4 hours): -39%
Incorporation of 3H-thymidine, cpm (tumorous HeLaS3 cells; 10^-6 mol/l, 4 hours): 253 cpm
Incorporation of 3H-thymidine, % change compared to the control (tumorous HeLaS3 cells; 10^-9 mol/l, 4 hours): -49%
Incorporation of 3H-thymidine, cpm (tumorous HeLaS3 cells; 10^-9 mol/l, 4 hours): 210 cpm
Incorporation of 3H-thymidine, % change compared to the control (tumorous HeLaS3 cells; 10^-12 mol/l, 4 hours): -20%
Incorporation of 3H-thymidine, cpm (tumorous HeLaS3 cells; 10^-12 mol/l, 4 hours): 330 cpm
